Measurements reported in article PMC11229326, “Structural characterization of two prototypical repressors of SorC family reveals tetrameric assemblies on DNA and mechanism of function” (Nucleic Acids Research, 2024).

Experiments:
CggR (Bacillus subtilis) = biological target: T1, CggR (Bacillus subtilis) (UniProt O32253); assay: cryo-EM; conditions: complex disassembles, recombinant protein, residues 1-340
T1 sequence (looked up): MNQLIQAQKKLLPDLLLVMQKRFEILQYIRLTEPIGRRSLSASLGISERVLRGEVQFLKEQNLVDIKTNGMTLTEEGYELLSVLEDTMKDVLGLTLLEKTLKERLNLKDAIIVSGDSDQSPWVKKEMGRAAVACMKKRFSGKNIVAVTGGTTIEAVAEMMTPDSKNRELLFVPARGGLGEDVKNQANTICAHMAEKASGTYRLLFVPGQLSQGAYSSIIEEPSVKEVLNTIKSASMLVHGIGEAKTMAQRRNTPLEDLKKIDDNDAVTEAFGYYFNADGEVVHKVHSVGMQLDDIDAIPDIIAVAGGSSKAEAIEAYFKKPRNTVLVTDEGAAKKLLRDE

DeoR (Bacillus subtilis) [1] = biological target: T2, DeoR (Bacillus subtilis) (UniProt P39140); assay: mass photometry; conditions: 30 nM, no mass change on DNA addition, attributed to low affinity; recombinant protein; residues 2-313
T2 sequence (looked up): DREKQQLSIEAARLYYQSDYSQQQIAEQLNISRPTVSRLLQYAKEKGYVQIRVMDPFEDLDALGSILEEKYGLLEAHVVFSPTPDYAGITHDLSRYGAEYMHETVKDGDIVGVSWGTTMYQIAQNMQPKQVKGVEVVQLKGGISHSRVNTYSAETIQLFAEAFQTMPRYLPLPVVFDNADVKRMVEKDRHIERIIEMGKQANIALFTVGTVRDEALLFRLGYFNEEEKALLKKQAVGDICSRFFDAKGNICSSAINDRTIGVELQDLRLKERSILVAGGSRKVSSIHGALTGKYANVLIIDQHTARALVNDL

DeoR (Bacillus subtilis) [2] = biological target: T2, DeoR (Bacillus subtilis); assay: SEC; conditions: about 56 uM DeoR, protein:DNA 2:1; recombinant protein; residues 2-313

TGACGGGACGTTTTTTGTCATAGCGGGACATATAATGTCCAGCAA (double strand) [CggR OLR (45 bp)]
binding result (CggR (Bacillus subtilis); dihydroxyacetone phosphate): binds more weakly
binding result (CggR (Bacillus subtilis); fructose-1,6-bisphosphate): binds more weakly

GTGACACGTTCAAACCTTTCATTGAACAAAATTTCAATTACCAATTTACATATGTTCAAAAGTCG (double strand) [OLR65]
binding result (DeoR (Bacillus subtilis) [1]): no binding

ATTGAACAAAATTTCAAT (double strand) [OL18]
binding result (DeoR (Bacillus subtilis) [2]): no binding

For some of these results: Negatives hold for the conditions tested. Protein sequences can lack the tags named with them. For some of these results: For at least one entry, the source does not settle the construct or the ends of the probe. For some of these results: Weaker means in comparison with the reference protein, sequence or condition of that experiment.
